Source: publication PMC2798614
No constants are given. Whether binding was seen depends on the method and setting.

Experiments:
[1] = molecular target: T1, MAXP1 (UniProt O35141); assay: two-hybrid; yeast strain AH10 (Clontech) cotransformed with pGBKT7 and pGADT7 constructs; selected on -Leu/-Trp (2-DO), interaction tested by growth on -Leu/-Trp/-His/-Ade (4-DO), scored after 5 days at 30°C
T1 sequence: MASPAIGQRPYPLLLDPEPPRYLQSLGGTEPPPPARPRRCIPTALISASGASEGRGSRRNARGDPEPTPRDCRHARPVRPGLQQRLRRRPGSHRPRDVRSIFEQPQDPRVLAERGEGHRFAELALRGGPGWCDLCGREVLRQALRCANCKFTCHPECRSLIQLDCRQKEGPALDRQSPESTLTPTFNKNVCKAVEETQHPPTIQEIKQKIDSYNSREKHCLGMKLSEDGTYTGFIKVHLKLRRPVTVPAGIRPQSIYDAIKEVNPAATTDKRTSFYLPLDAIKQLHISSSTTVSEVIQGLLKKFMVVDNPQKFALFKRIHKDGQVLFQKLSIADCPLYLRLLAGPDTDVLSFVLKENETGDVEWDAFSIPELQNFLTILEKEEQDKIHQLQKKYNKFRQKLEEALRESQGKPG

[2] = molecular target: p53 (full-length) (UniProt P04637); assay: as above

Substance: p19 H-Ras (from UniProt P01112-2 1-170)
- binding [1]: no binding
- binding [2]: no binding
